Drawing on article PMC11465927, this text covers binding for three substances.

The target in assay [1] is Glyma.07G192800 (soybean (Glycine max)) (UniProt K7L2N5). Put plainly: two-hybrid; yeast two-hybrid; baits in pGBKT7 (BD-TPS), preys in pGADT7 (AD-TPSs or AD-p450s); negative controls with empty pGBKT7 or empty pGADT7; positive control AD-T + BD-53.
The target in assay [2] is Glyma.15G263300 (soybean (Glycine max)). The description is as above.

No constants are given. Whether binding was seen depends on the method and setting. A result given as binding can be weak or reduced; the word gives no strength.

Regarding Glyma.12G140600 (from UniProt K7LUR1), the binding entry in assay [1] is “binds”.
As for Glyma.20G074400 (from UniProt K7N247), the binding result in assay [2] is listed as “binds”.
“P450 protein Glyma.09G029400 (from UniProt A0A0R0I304)”: the binding result in assay [1] is given as “binds”.
